# Results from PubChem BioAssay AID1671190 (National Center for Advancing Translational Sciences (NCATS), 2021).
# Protein sequences, listed by entry. Tags and fused reporters are not part of them. Lines headed by an entry give the natural chain unless they say otherwise; changes in a name come on top.
# UniProt P18054: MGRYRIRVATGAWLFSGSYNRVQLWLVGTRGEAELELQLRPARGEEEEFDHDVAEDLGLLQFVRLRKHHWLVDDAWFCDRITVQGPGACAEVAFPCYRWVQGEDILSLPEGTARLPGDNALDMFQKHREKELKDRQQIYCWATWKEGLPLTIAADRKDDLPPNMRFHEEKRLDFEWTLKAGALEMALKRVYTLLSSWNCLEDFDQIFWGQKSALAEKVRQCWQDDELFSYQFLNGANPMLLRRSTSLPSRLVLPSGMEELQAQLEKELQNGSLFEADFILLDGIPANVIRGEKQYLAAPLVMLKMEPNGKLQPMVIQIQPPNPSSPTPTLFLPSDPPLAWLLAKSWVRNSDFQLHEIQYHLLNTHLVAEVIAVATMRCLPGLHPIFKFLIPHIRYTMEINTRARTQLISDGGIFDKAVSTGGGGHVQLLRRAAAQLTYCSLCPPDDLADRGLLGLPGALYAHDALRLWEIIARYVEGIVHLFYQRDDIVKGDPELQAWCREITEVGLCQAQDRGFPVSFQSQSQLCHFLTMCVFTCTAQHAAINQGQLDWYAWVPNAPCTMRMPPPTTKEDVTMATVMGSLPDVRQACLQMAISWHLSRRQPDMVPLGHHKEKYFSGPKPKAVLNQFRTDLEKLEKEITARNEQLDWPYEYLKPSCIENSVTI
# The whole screen tested about 580,000 compounds, of which about 6,100 (1.1%) were called active. Inconclusive means that the source gave no clear call. Such entries were picked first, then a sample of the others. Calls come from the whole dose curve; as a rule, active = well fitted inhibition curve with a large enough effect; inconclusive = small, poorly fitted or top-dose-only effect, or another doubt; inactive = no such curve, though single readings can be large or run the other way. A potency beside an inconclusive call is a rough fit, not a confirmed value.
# Molecular target: Polyunsaturated fatty acid lipoxygenase ALOX12 (Homo sapiens) (UniProt P18054)
# Assay: Primary qHTS assay for inhibitors of human arachidonate 12S-lipoxygenase (ALOX12): Round 2
# Details: purified 12hLO, xylenol orange hydroperoxide absorbance; series mostly up to 108 µM
# Summary of the method: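 Purified human 12hLO at 150 nM in 25 mM Hepes, 0.01% Triton X-100, pH 7.0, preincubated 15 min at room temperature with compound. Reaction started with 40 uM arachidonic acid, 30 min at room temperature. Hydroperoxide measured by Fe-xylenol orange, 573/405 nm absorbance ratio.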
# Potency is the fitted concentration of half-maximal effect.
row,Compound,Potency
1,CCN(CC)CCOC(=O)CCc1cccc2ccccc12,"inconclusive: 2.51 µM [inhibitor, full curve, poor fit]"
2,Cc1ncoc1C(=O)Nc1cccc(Cl)c1,"inconclusive: 56.2 µM [inhibitor, partial curve, poor fit]"
3,Cc1cccc(-c2nc(C#N)c(NCCCN(C)C)o2)c1,"inconclusive: 22.4 µM [inhibitor, partial curve, poor fit]"
4,Cc1ccc(-n2c3c(c(=O)[nH]c2=O)C(C(F)(F)F)(C(F)(F)F)N=C(c2ccncc2)N3)cc1,"inconclusive: 31.6 µM [inhibitor, partial curve, poor fit]"
5,O=C(CCNC(=O)c1cnccn1)NC1CCCc2c1[nH]c1ccccc21 (configuration not stated),"inconclusive: 50.1 µM [inhibitor, partial curve, poor fit]"
6,CCSc1nnc(-c2cnn(-c3ccccc3)c2-n2cccc2)n1C,inactive
7,CC(C)C[C@H](NC(=O)Cn1nc2c(cc1=O)CCCC2)C(=O)O,"inconclusive: 10 µM [inhibitor, full curve, poor fit]"
8,O=C(Nc1ccccc1)N(Cc1ccc(F)cc1)c1ccccn1,inactive
9,Cc1cc(O)c(C(c2ccccc2)N2CCN(C)CC2)c(=O)n1Cc1ccco1 (configuration not stated),"inconclusive: 44.7 µM [inhibitor, partial curve, poor fit]"
10,CCOC(=O)c1[nH]c(C)c(/C(O)=C2\C(=O)C(=O)N(CCN(C)C)C2c2ccncc2)c1C (configuration not stated),"inconclusive: 56.2 µM [inhibitor, partial curve, poor fit]"
11,CC1=C(C(=O)N2CCN(c3cccc(C)c3C)CC2)C2(CCCCC2)OC1=O,"inconclusive: 141 µM [inhibitor, partial curve, poor fit]"
12,c1ccc(C(c2c[nH]c3ccccc23)c2c[nH]c3ccccc23)nc1,"inconclusive: 50.1 µM [inhibitor, partial curve, poor fit]"
13,CCC(=O)Nc1ccc(NC(=S)NC(=O)/C=C/c2ccccc2)cc1,inactive
14,CCN(CC)S(=O)(=O)c1cccc(C(=O)N(C)Cc2cccs2)c1,inactive
15,COCCN(C(=O)CCc1ccc(OC)cc1)c1nnc(-c2ccncc2)s1,"inconclusive: 25.1 µM [inhibitor, full curve, poor fit]"
16,COc1ccc(CN2CCC(C)(Oc3cccc(F)c3)C2)c2ccccc12 (configuration not stated),"inconclusive: 50.1 µM [inhibitor, partial curve, poor fit]"
17,C=CCNc1nc(Nc2ccc(Cl)cc2)nc(OC)n1,active: 39.8 µM
18,Cc1ccc(/C=C2\SC(=O)N(CCNC(=O)C3CSC4(C)CCC(=O)N34)C2=O)cc1 (configuration not stated),"inconclusive: 50.1 µM [inhibitor, partial curve, poor fit]"
19,CCCCn1c2c(c(=O)[nH]c1=O)C(c1ccc(Br)cc1)C1=C(COC1=O)N2 (configuration not stated),inactive
20,Cc1cccc(NC2=CC(c3cccc(Br)c3)N(c3cccc(C)c3)C2=O)c1 (configuration not stated),"inconclusive: 50.1 µM [inhibitor, partial curve, poor fit]"
21,CNc1ccnc(-c2ccccc2C)n1,"inconclusive: 7.94 µM [inhibitor, full curve, poor fit]"

# As a working copy, three of the compounds above.
row,Compound,Potency
10,CCOC(=O)c1[nH]c(C)c(/C(O)=C2\C(=O)C(=O)N(CCN(C)C)C2c2ccncc2)c1C (configuration not stated),"inconclusive: 56.2 µM [inhibitor, partial curve, poor fit]"
11,CC1=C(C(=O)N2CCN(c3cccc(C)c3C)CC2)C2(CCCCC2)OC1=O,"inconclusive: 141 µM [inhibitor, partial curve, poor fit]"
12,c1ccc(C(c2c[nH]c3ccccc23)c2c[nH]c3ccccc23)nc1,"inconclusive: 50.1 µM [inhibitor, partial curve, poor fit]"

# Remaining list, next part:

row,Compound,Potency
1,CC(C)(Oc1nn(Cc2cccc(Cl)c2)c2ccccc12)C(=O)NC1CC1,"inconclusive: 100 µM [inhibitor, partial curve, poor fit]"
2,c1cncc(CNCCCn2ccnc2)c1,"inconclusive: 14.1 µM [inhibitor, full curve, poor fit]"
3,NN=C1c2ccccc2C(=O)C1C(=O)C(c1ccccc1)c1ccccc1 (configuration not stated),"inconclusive: 50.1 µM [inhibitor, partial curve, poor fit]"
4,Cc1cc(N2CCCC2)nc(Nc2ccc(NS(=O)(=O)c3ccc(Br)cc3)cc2)n1,"inconclusive: 50.1 µM [inhibitor, partial curve, poor fit]"
5,CCOc1cc2c(cc1OCC)C(c1ccc(C(=O)O)cc1)NCC2 (configuration not stated),"inconclusive: 28.2 µM [inhibitor, full curve, poor fit]"
6,Cc1nc(SCC(=O)NC(c2ccc3c(c2)OCCCO3)C(C)C)c(C#N)c(C)c1C (configuration not stated),"inconclusive: 44.7 µM [inhibitor, partial curve, poor fit]"
7,CCOC(=O)c1c(C)[nH]c(C)c1S(=O)(=O)NCC(=O)N1CCN(c2cccc(C)c2)C(C)C1 (configuration not stated),"inconclusive: 56.2 µM [inhibitor, partial curve, poor fit]"
8,S=C(NCCCc1cnc[nH]1)NCCCN(Cc1ccc(Cl)cc1)c1ccc(Br)cn1,"inconclusive: 44.7 µM [inhibitor, partial curve, poor fit]"
9,COc1ccc(-n2c(CNC(=O)c3ccc(OC)cc3OC)nnc2SC)cc1,inactive
10,C=CCn1c(SCC(=O)Nc2cccc3ccccc23)nnc1-c1cnccn1,inactive
11,O=c1ccc(-c2n[nH]c(=S)n2-c2ccc(F)c(Cl)c2)n[nH]1,"inconclusive: 50.1 µM [inhibitor, partial curve, poor fit]"
12,Cc1cc(NC(=O)c2ccccc2F)n(-c2nc3ccccc3[nH]2)n1,inactive
13,CC(=O)N1c2ccccc2[C@@H](C)[C@@H]1C,inactive
14,Oc1ccc(O)c([S+]2CCCCC2)c1,"inconclusive: 17.8 µM [inhibitor, full curve]"
15,COc1ccc(CNS(=O)(=O)c2ccc(F)cc2Br)cc1,"inconclusive: 3.16 µM [inhibitor, full curve]"
16,O=C(NCC(F)(F)F)c1[nH]c(C(F)(F)F)nc1-c1ccccc1,"inconclusive: 89.1 µM [inhibitor, single point]"
17,Cc1[nH]c2ccccc2c1[C@H]1[C@@H](CC#N)C1(C)C,inactive
18,O=c1[nH]c2ccc(Br)cc2c(-c2ccccc2)c1CN1CCOCC1,inactive
19,O=c1c2ccccc2[nH]c(=S)n1CCN1CCCC1,inactive
20,Cc1ccc(S(=O)(=O)N/N=C\c2cn(-c3ccccc3)nc2-c2ccccc2)cc1,inactive
21,Cc1ccc(C(C)NC(=O)C2(c3cccc(F)c3)CCOCC2)s1 (configuration not stated),"inconclusive: 39.8 µM [inhibitor, partial curve, poor fit]"
